Results are given in words; binding and its absence hold for the method and conditions named. Binding seen in cells or lysates may run through a third protein. Some binding calls cover weakened binding; strength is not graded here.

The assay has as its target T1, DExH-box helicase 58 (DHX58), endogenous in liver tissues (not stated (endogenous in liver tissues; mouse and human livers were used in the paper)) (UniProt Q99J87).
T1 sequence: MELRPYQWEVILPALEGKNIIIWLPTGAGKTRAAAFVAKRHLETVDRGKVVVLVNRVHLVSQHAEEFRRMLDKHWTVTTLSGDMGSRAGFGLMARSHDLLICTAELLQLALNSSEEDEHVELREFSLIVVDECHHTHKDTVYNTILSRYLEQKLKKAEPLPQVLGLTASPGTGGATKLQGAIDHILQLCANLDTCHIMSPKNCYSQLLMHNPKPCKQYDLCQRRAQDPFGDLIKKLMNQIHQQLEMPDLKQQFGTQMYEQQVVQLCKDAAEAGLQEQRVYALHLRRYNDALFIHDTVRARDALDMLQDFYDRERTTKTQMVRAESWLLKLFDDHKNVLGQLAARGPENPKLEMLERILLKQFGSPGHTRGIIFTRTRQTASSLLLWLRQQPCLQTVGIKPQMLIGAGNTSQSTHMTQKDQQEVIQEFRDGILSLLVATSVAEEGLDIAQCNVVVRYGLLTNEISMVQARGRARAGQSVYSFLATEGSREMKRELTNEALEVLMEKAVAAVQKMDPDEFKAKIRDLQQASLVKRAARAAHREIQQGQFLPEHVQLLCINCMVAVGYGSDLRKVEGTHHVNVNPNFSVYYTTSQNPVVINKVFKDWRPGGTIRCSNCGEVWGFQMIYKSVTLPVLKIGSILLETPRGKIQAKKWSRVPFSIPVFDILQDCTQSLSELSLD
Put plainly: co-IP; endogenous proteins in liver tissue lysates; extracts incubated with the antibodies and protein beads overnight, Western blotting.

B1: YT521-B homology domain containing 2 (YTHDC2), endogenous in liver tissues (protein, UniProt B2RR83 1-1445)
chain: MSRPSSVSPRPPAPSGGGTGGGGGGSGGGGGGGGGGPASCGPGGGGRAKGLKDIRIDEEVKIAVNIALERFRYGDQREMEFPSSLTSTERAFIHRLSQSLGLVSKSKGKGANRYLTVKKKDGSETAHAMMTCNLTHNTKHAVRSLIQRFPVTNKERTELLPKTERGNVFAVEAENREMSKTSGRLNNGIPQVPVKRGESEFDSFRQSLPVFEKQEEIVKIIKENKVVLIVGETGSGKTTQIPQFLLDDCFKNGIPCRIFCTQPRRLAAIAVAERVAAERRERIGQTIGYQIRLESRVSPKTLLTFCTNGVLLRTLMAGDSTLSTVTHVIVDEVHERDRFSDFLLTKLRDLLQKHPTLKLILSSAALDVNLFIRYFGSCPVIYIQGRPFEVKEMFLEDILRTTGYTNKEMLKYKKEKQREEKQQTTLTEWYSAQENTFKPESQRQRAVASVSEEYDLLDDGGDAVFSQLTEKDVNCLEPWLIKEMDACLSDIWLHKDVDAFAQVFHLILTENVSVDYRHSETSATALMVAAGRGFTSQVEQLISMGANVHSKASNGWMALDWAKHFGQTEIVDLLESYSASLEFGNLDESSLVQTNGNDLSAEDRELLKAYHHSFDDEKVDLDLIMHLLYNICHSCDAGAILIFLPGYDEIVGLRDRILFDDKRFADNTHRYQVFMLHSNMQTSDQKKVLKNPPAGVRKIILSTNIAETSITVNDVVFVIDSGKVKEKSFDALNFVTMLKMVWISKASAIQRKGRAGRCRPGICFRLFSRLRFQNMLEFQTPELLRMPLQELCLHTKLLAPVNCTIADFLMKAPEPPPALIVRNAVQMLKTIDAMDAWEDLTELGYHLADLPVEPHLGKMVLCAVVLKCLDPILTIACTLAYRDPFVLPTQASQKRAAMLCRKRFTAGTFSDHMALLRAFQAWQKARSDGWERAFCEKNFLSQATMEIIIGMRTQLLGQLRASGFVRARGGGDIRDVNTNSENWAVVKAALVAGMYPNLVHVDRENVILTGPKEKKVRFHPTSVLSQPQYKKIPPANGQAAAIQALPTDWLIYDEMTRAHRIANIRCCSAVTPVTVLVFCGPARLASNALQEPSSFRADGIPNDSSDSEMEDRTTANLAALKLDEWLNFKLEPEAASLLLQLRQKWHSLFLRRMRAPSKPWSQVDEATIRAIIAVLSTEEQSAGLQQPSGIGQRPRPMSSEELPLASSWRSNNSRKSTADTEFADGSTTGERVLMKSPSPALHPPQKYKDRGILHPKRSTDDRSDQSSVKSTDSSSYPSPCASPSPPSSGKGSKSPSPRPNMPIRYFIMKSSNLRNLEISQQKGIWSTTPSNERKLNRAFWESSMVYLVFSVQGSGHFQGFSRMSSEIGREKSQDWGSAGLGGVFKVEWIRKESLPFQFAHHLLNPWNDNKKVQISRDGQELEPQVGEQLLQLWERLPLGEKTTSD
In the case of B1, the binding result was “binds”.

The values are drawn from PMC11017495.
